Values from PubChem BioAssay AID1159584 (Peter MacCallum Cancer Centre, 2016)
The deposit covers about 18,000 reagents; shown is a random part of them. Not all columns of the deposit are shown. The record does not give: the amount of reagent, the time to read-out.

Test: 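Genes that CDH1-null MCF10A cells selectively depend on to survive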 (primary screen)
System: human MCF10A breast epithelial cells, parental and CDH1-null
Reagent: siRNA against human genes
Read-out: 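Cell viability by CellTiter-Glo ATP luminescence, each line scaled to the mean of mock wells across plates, then CDH1-null over parental ratio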
Scale: CDH1-null / parental viability ratio: higher = CDH1-null cells survive relatively better than parental; CDH1-null viability vs mock: higher = more viable CDH1-null cells

The first 2 entries as a preview:
Target gene,CDH1-null / parental viability ratio,CDH1-null viability vs mock (fraction of mock)
DCAF16 (DDB1 and CUL4 associated factor 16),0.97,0.72
KRT19 (keratin 19),1.13,0.7

Results, from the first entry:
Target gene,CDH1-null / parental viability ratio,CDH1-null viability vs mock (fraction of mock)
DCAF16 (DDB1 and CUL4 associated factor 16),0.97,0.72
KRT19 (keratin 19),1.13,0.7
CCT7 (chaperonin containing TCP1 subunit 7),1,0.68
WDR4,0.73,0.8
KDELR1 (KDEL endoplasmic reticulum protein retention receptor 1),1.05,0.97
LY6G5B (lymphocyte antigen 6 family member G5B),1.27,0.94
C1QTNF1 (C1q and TNF related 1),1.02,0.9
"SPTB (spectrin beta, erythrocytic)",1.08,0.65
MVB12B (multivesicular body subunit 12B),0.84,0.62
ZP3 (zona pellucida glycoprotein 3),1.27,1.12
CENPQ (centromere protein Q),0.93,0.78
DPH7 (diphthamide biosynthesis 7),0.84,0.76
GMFG (glia maturation factor gamma),1.24,0.68
TXNRD2 (thioredoxin reductase 2),0.89,0.66
AURKAIP1 (aurora kinase A interacting protein 1),0.9,0.9
MFAP2 (microfibril associated protein 2),0.76,0.62
SLC25A48,0.84,0.74
PHF21B (PHD finger protein 21B),0.98,0.96
NFYC (nuclear transcription factor Y subunit gamma),1,1.08
H3-3B (H3.3 histone B),1.04,0.94
"PCDHGA6 (protocadherin gamma subfamily A, 6)",1.18,0.79
FOXA1 (forkhead box A1),0.91,0.52
LRTOMT,0.85,0.58
ENOPH1 (enolase-phosphatase 1),1.05,1.01
C7orf33 (chromosome 7 open reading frame 33),1.2,0.67
SYK (spleen associated tyrosine kinase),1.12,0.72
"RAB14 (RAB14, member RAS oncogene family)",1.19,1.17
OR4F29 (olfactory receptor family 4 subfamily F member 29),1.31,0.94
CIDEC (cell death inducing DFFA like effector c),0.98,1
ZNF426 (zinc finger protein 426),1.5,0.54
DSTYK (dual serine/threonine and tyrosine protein kinase),1.23,1.12
APOA1 (apolipoprotein A1),1.05,0.88
PACS2 (phosphofurin acidic cluster sorting protein 2),1.02,1.09
KLRC2 (killer cell lectin like receptor C2),1.03,0.75
CH25H (cholesterol 25-hydroxylase),0.98,0.9
CRYGB (crystallin gamma B),0.95,0.8
RASGRF2 (Ras protein specific guanine nucleotide releasing factor 2),1.27,0.76
TRAPPC12 (trafficking protein particle complex subunit 12),1.08,0.68
OR1A2 (olfactory receptor family 1 subfamily A member 2),0.92,0.7
RBAK (RB associated KRAB zinc finger),1.12,1.17
RALGPS2 (Ral GEF with PH domain and SH3 binding motif 2),0.93,0.76
PSIP1 (PC4 and SRSF1 interacting protein 1),1.36,0.6
DOK3 (docking protein 3),0.85,0.82
ODAD3 (outer dynein arm docking complex subunit 3),0.88,0.6
TARP (TCR gamma alternate reading frame protein),0.97,0.83
ZNF503 (zinc finger protein 503),0.9,0.6
